Source: patent publication US20210386367A1, “DEVICES AND SYSTEMS FOR GASTROINTESTINAL MICROBIOME DETECTION AND MANIPULATION” (Progenity, Inc., priority 2018, published 2021)
Where two headings read alike, the source gives them in different places. At least one structure is not confirmed: it was looked up by name or label, or the drawing left a doubt.

How the values were obtained:
[1] = test system: Bacteroides spp.; assay: Spontaneous mutation frequency assay; format: cell-based; settings: selection at 4× and 8× MIC
Protocol: Initial values of the MIC were determined by agar dilution in accordance with guidelines from the Clinical and Laboratory Standards Institute (CLSI; (1) “Methods for Dilution Antimicrobial Susceptibility Tests for Bacteria That Grow Aerobically; Approved Standard; 11th ed.,” CLSI standard M07, 2018; (2) “Methods for Antimicrobial Susceptibility Testing of Anaerobic Bacteria; Approved Standard—Eighth Edition,” CLSI document M11-A8, 2012.).
The agar plates were prepared by mixing a ratio of 1.0 mL of concentrated drug to 49.0 mL of the appropriate molten (47° C.) agar; the drug-supplemented agar was mixed, poured into 15-by-150 mm petri dishes and allowed to solidify and dry at room temperature prior to inoculation. […]
Once the inoculum was absorbed into the agar, the plates were incubated at 35° C. Aerobes were examined at 24 and 48 hr, and resulting colonies were counted. Bacteroides were incubated anaerobically for 48-72 hr in the anaerobe chamber and colonies were counted.
Colony counts from plates used to enumerate the initial inoculum density and from the resulting spontaneous mutation frequency test plates were determined. The inoculum size was calculated as CFU inoculated per plate. The spontaneous mutation frequency was calculated using the counts from duplicate spontaneous mutation assay test plates as follows: […]

[2] = test system: Escherichia coli; parameters: unit not given beside the values; settings: cited from earlier work
[3] = test system: Enterobacteriaceae; parameters: unit not given beside the values; settings: cited from earlier work
[4] = test system: Bacteroides fragilis; assay: Agar dilution MIC, 30 clinical isolates; format: cell-based; parameters: unit not given beside the values; settings: 30 Bacteroides fragilis clinical isolates
[5] = test system: Clostridium spp.; assay: Agar dilution MIC, 10 clinical isolates; format: cell-based; settings: 10 Clostridium spp. clinical isolates
[6] = test system: Bacteroides spp; parameters: unit not given beside the values; settings: cited from earlier work
[7] = test system: Bacteroides fragilis; parameters: unit not given beside the values; settings: cited from earlier work
[8] = test system: Proteus mirabilis; assay: Broth microdilution MIC, 50 clinical isolates; format: cell-based; parameters: unit not given beside the values; settings: listed as RFX
Protocol: Minimal inhibitory concentration (MIC) values were determined by broth microdilution or agar dilution in accordance with guidelines from the Clinical and Laboratory Standards Institute (CLSI; (1) “Methods for Dilution Antimicrobial Susceptibility Tests for Bacteria That Grow Aerobically; Approved Standard; 11th ed.” CLSI standard M07-A11, 2018; (2) “Performance Standards for Antimicrobial Susceptibility Testing; Twenty-Eighth Informational Supplement,” CLSI document M100-S28, 2018; and (3) “Methods for Antimicrobial Susceptibility Testing of Anaerobic Bacteria; Approved Standard—Eighth Edition,” CLSI document M11-A8, 2012).
Tested aerobically by broth microdilution: • Escherichia coli, n=50 • Klebsiella spp., n=50 • Pseudomonas aeruginosa, n=50 • Streptococcus spp., n=50 • Staphylococcus aureus, n=50 • Enterococcus faecalis, n=50 • Enterobacter aerogenes, n=50 • Proteus mirabilis, n=50
Broth microdilution testing of aerobic bacteria was conducted in cation-adjusted Mueller Hinton broth (MHBII). […]
Inoculated plates were stacked 3 or 4 high, covered with a sterile lid on the top plate, placed into boxes with CO2 planchets (streptococci) or plastic bags (all other isolates). […] The MIC values were read and recorded as the lowest concentration of drug that inhibited visible growth of the organism as per CLSI methods (1) and (2).

[9] = test system: Bacteroides ovatus; parameters: unit not given beside the values; settings: cited from earlier work
[10] = test system: Fusobacterium spp; parameters: unit not given beside the values; settings: cited from earlier work
[11] = test system: Bacteroides thetaiotaomicron; parameters: unit not given beside the values; settings: cited from earlier work

SMILES: CO[C@H]1/C=C/O[C@@]2(C)Oc3c(C)c(O)c4c(O)c(c5c(nc6cc(C)ccn65)c4c3C2=O)NC(=O)/C(C)=C\C=C\[C@H](C)[C@H](O)[C@@H](C)[C@@H](O)[C@@H](C)[C@H](OC(C)=O)[C@@H]1C [rifaximin]
- spontaneous mutation frequency [1]: 8.7×10^10-1.19×10^−9
- spontaneous mutation frequency ([1]; listed as rifampin): 10^−9-10^−10
- MIC Range [2]: 2->512
- MIC Range [3]: 4->128
- MIC Range [4]: 0.12->32
- MIC Range [5]: 2->64
- MIC Range [6]: 0.12->1024
- MIC Range [7]: 0.25->1024
- MIC Range [8]: 4->64
- MIC Range [9]: 0.25->1024
- MIC Range [10]: 0.25->1024
- MIC Range [11]: 1->1024
